Measured data: PubChem BioAssay AID1259308 (NCATS, 2017)
Test: 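Genes whose loss raises luciferase production in HEK293 cells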 (primary screen). Cells: human HEK293 embryonic kidney cells stably expressing firefly luciferase (HEK-CMV-Luc2-Hygro). Reagents: single siRNA against human genes, 0.8 pmol siRNA per well. Time to read-out: 72 h. Measured: 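Luciferase light (ONE-Glo) measured on one replicate plate set and viability (CellTiter-Glo) on the other, scaled to a negative control siRNA, with robust z-scores and luciferase per cell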. Direction: total luciferase, z-score and total luciferase, % of control: higher = more reporter protein produced; luciferase per cell, z-score: higher = more reporter output per viable cell; viable cells, % of control: higher = more viable cells. Call rule: 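An siRNA counts as active if its total luciferase robust z-score exceeds 3; genes with two or more such siRNAs out of three were retested with fresh siRNAs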. Calls: active = raised luciferase; inactive = no rise.
In all, the deposit lists about 59,000 reagents; shown is a random part of them. About 1,510 of all reagents (2.6%) were called active. 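Calls use total luciferase alone and ignore viability, so some active siRNAs may act by altering cell number.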 Reagents against one gene are numbered here.

gene | reagent | total luciferase, z-score | total luciferase, % of control | luciferase per cell, z-score | viable cells, % of control | activity call
RPL9P11 (ribosomal protein L9 pseudogene 11) | 1 | 0.621 | 94.2 | 0.136 | 102 | inactive
RPL9P11 (ribosomal protein L9 pseudogene 11) | 2 | -0.553 | 70.9 | -0.483 | 89.9 | inactive
RPL9P11 (ribosomal protein L9 pseudogene 11) | 3 | -0.309 | 75.7 | -0.743 | 103 | inactive
MAST2 (microtubule associated serine/threonine kinase 2) | 1 | 1.2 | 106 | 1.43 | 81 | inactive
MAST2 (microtubule associated serine/threonine kinase 2) | 2 | 0.918 | 100 | 0.339 | 102 | inactive
MAST2 (microtubule associated serine/threonine kinase 2) | 3 | -0.126 | 79.4 | -0.284 | 95.6 | inactive
RIPK3 (receptor interacting serine/threonine kinase 3) | 1 | -0.997 | 62.1 | -1.25 | 96.3 | inactive
RIPK3 (receptor interacting serine/threonine kinase 3) | 2 | 0.54 | 92.6 | -0.119 | 107 | inactive
RIPK3 (receptor interacting serine/threonine kinase 3) | 3 | 0.0593 | 83.1 | 0.408 | 83.4 | inactive
CCNQP1 (CCNQ pseudogene 1) | 1 | -0.382 | 74.3 | -0.194 | 87.3 | inactive
CCNQP1 (CCNQ pseudogene 1) | 2 | -0.453 | 72.9 | 0.0702 | 79.9 | inactive
CCNQP1 (CCNQ pseudogene 1) | 3 | -0.644 | 69.1 | 1.18 | 56.6 | inactive
PRSS44P (serine protease 44, pseudogene) | 1 | -0.503 | 71.9 | -1.23 | 111 | inactive
PRSS44P (serine protease 44, pseudogene) | 2 | 0.406 | 90 | 0.11 | 97.7 | inactive
PRSS44P (serine protease 44, pseudogene) | 3 | -0.718 | 67.6 | -1.13 | 102 | inactive
PRSS44P (serine protease 44, pseudogene) | 4 | 1.19 | 106 | 0.882 | 93.5 | inactive
PRSS44P (serine protease 44, pseudogene) | 5 | 0.438 | 90.6 | 0.0218 | 101 | inactive
PRSS44P (serine protease 44, pseudogene) | 6 | -0.366 | 74.6 | -0.233 | 88.7 | inactive
DAB2IP (DAB2 interacting protein) | 1 | -0.604 | 69.9 | -0.815 | 96.8 | inactive
DAB2IP (DAB2 interacting protein) | 2 | -0.413 | 73.7 | 0.388 | 74.3 | inactive
DAB2IP (DAB2 interacting protein) | 3 | 1.74 | 117 | 1.52 | 87.3 | inactive
SAMD11 (sterile alpha motif domain containing 11) | 1 | 1.32 | 108 | -0.00714 | 121 | inactive
SAMD11 (sterile alpha motif domain containing 11) | 2 | 1.2 | 106 | 0.802 | 95.6 | inactive
SAMD11 (sterile alpha motif domain containing 11) | 3 | 4.91 | 179 | 3.51 | 79.6 | active
MYBBP1A (MYB binding protein 1a) | 1 | -0.225 | 77.4 | -0.761 | 106 | inactive
MYBBP1A (MYB binding protein 1a) | 2 | -0.729 | 67.4 | -0.797 | 92.9 | inactive
MYBBP1A (MYB binding protein 1a) | 3 | 0.414 | 90.1 | -0.0303 | 102 | inactive
ZNF607 (zinc finger protein 607) | 1 | -0.0767 | 80.4 | -0.557 | 104 | inactive
ZNF607 (zinc finger protein 607) | 2 | 1.33 | 108 | 0.807 | 97.8 | inactive
ZNF607 (zinc finger protein 607) | 3 | -0.563 | 70.7 | -0.258 | 84.5 | inactive
BCO2 (beta-carotene oxygenase 2) | 1 | 0.644 | 94.7 | -0.0524 | 107 | inactive
BCO2 (beta-carotene oxygenase 2) | 2 | 0.0846 | 83.6 | 0.181 | 89 | inactive
BCO2 (beta-carotene oxygenase 2) | 3 | -0.828 | 65.4 | -0.822 | 90.8 | inactive
ASL (argininosuccinate lyase) | 1 | 1.63 | 114 | 1.59 | 84 | inactive
ASL (argininosuccinate lyase) | 2 | 0.613 | 94.1 | 0.602 | 89.7 | inactive
ASL (argininosuccinate lyase) | 3 | -0.19 | 78.1 | 0.0766 | 85.5 | inactive
TBCD (tubulin folding cofactor D) | 1 | -1.3 | 55.9 | -0.384 | 69.2 | inactive
TBCD (tubulin folding cofactor D) | 2 | -0.842 | 65.1 | 0.316 | 67 | inactive
TBCD (tubulin folding cofactor D) | 3 | 1 | 102 | 1.15 | 84 | inactive

As entered above.
TBCD (tubulin folding cofactor D) #3, viable cells, % of control → 84
Value for ASL (argininosuccinate lyase) #3 under “viable cells, % of control”: 85.5
Under “total luciferase, z-score”, CCNQP1 (CCNQ pseudogene 1) #3 shows -0.644
MYBBP1A (MYB binding protein 1a) #1, viable cells, % of control: 106
Entry of ZNF607 (zinc finger protein 607) #1 under “luciferase per cell, z-score”: -0.557
For “viable cells, % of control”, RPL9P11 (ribosomal protein L9 pseudogene 11) #3 shows 103

Continued:
gene | reagent | total luciferase, z-score | total luciferase, % of control | luciferase per cell, z-score | viable cells, % of control | activity call
USP4 (ubiquitin specific peptidase 4) | 1 | -0.231 | 77.3 | -0.757 | 105 | inactive
USP4 (ubiquitin specific peptidase 4) | 2 | -0.8 | 66 | -0.857 | 92.4 | inactive
USP4 (ubiquitin specific peptidase 4) | 3 | -0.852 | 64.9 | -1 | 94.5 | inactive
KANSL2 (KAT8 regulatory NSL complex subunit 2) | 1 | -1.16 | 58.7 | -0.958 | 84.4 | inactive
KANSL2 (KAT8 regulatory NSL complex subunit 2) | 2 | -1.07 | 60.6 | -1.27 | 94.6 | inactive
KANSL2 (KAT8 regulatory NSL complex subunit 2) | 3 | 0.0522 | 82.9 | -0.167 | 96.8 | inactive
LOC150935 | 1 | -1.46 | 52.9 | -1.39 | 85.3 | inactive
LOC150935 | 2 | 0.387 | 89.6 | -0.17 | 105 | inactive
LOC150935 | 3 | 1.5 | 112 | 1.01 | 95.6 | inactive
SUPT16H (SPT16 homolog, facilitates chromatin remodeling subunit) | 1 | 0.62 | 94.2 | 0.131 | 102 | inactive
SUPT16H (SPT16 homolog, facilitates chromatin remodeling subunit) | 2 | 1.86 | 119 | 0.885 | 105 | inactive
SUPT16H (SPT16 homolog, facilitates chromatin remodeling subunit) | 3 | 2.02 | 122 | 2.24 | 75.7 | inactive
SARDH (sarcosine dehydrogenase) | 1 | -0.51 | 71.7 | -0.524 | 92 | inactive
SARDH (sarcosine dehydrogenase) | 2 | -0.443 | 73.1 | -1.22 | 113 | inactive
SARDH (sarcosine dehydrogenase) | 3 | 0.172 | 85.3 | -0.0945 | 97.7 | inactive
COX14 (cytochrome c oxidase assembly factor COX14) | 1 | -1.04 | 61.2 | -0.782 | 84 | inactive
COX14 (cytochrome c oxidase assembly factor COX14) | 2 | 2.06 | 123 | 2.31 | 74.7 | inactive
COX14 (cytochrome c oxidase assembly factor COX14) | 3 | -0.668 | 68.6 | -0.599 | 89.8 | inactive
NAP1L4 (nucleosome assembly protein 1 like 4) | 1 | 0.342 | 88.7 | 0.321 | 91.1 | inactive
NAP1L4 (nucleosome assembly protein 1 like 4) | 2 | -0.158 | 78.7 | 0.189 | 83.7 | inactive
NAP1L4 (nucleosome assembly protein 1 like 4) | 3 | -0.591 | 70.1 | -0.903 | 99.4 | inactive
POU2AF1 (POU class 2 homeobox associating factor 1) | 1 | -0.192 | 78.1 | -0.0449 | 88.3 | inactive
POU2AF1 (POU class 2 homeobox associating factor 1) | 2 | -1.12 | 59.6 | 1.19 | 48.7 | inactive
POU2AF1 (POU class 2 homeobox associating factor 1) | 3 | 0.522 | 92.3 | 1.41 | 71.2 | inactive
DNAJC21 (DnaJ heat shock protein family (Hsp40) member C21) | 1 | 0.345 | 88.7 | -0.0542 | 101 | inactive
DNAJC21 (DnaJ heat shock protein family (Hsp40) member C21) | 2 | 0.518 | 92.2 | 0.581 | 88.4 | inactive
DNAJC21 (DnaJ heat shock protein family (Hsp40) member C21) | 3 | 0.391 | 89.7 | 0.162 | 96 | inactive
ZMYND19 (zinc finger MYND-type containing 19) | 1 | 1.76 | 117 | 0.964 | 101 | inactive
ZMYND19 (zinc finger MYND-type containing 19) | 2 | 4.33 | 168 | 2.46 | 98.3 | active
ZMYND19 (zinc finger MYND-type containing 19) | 3 | -1.95 | 43.1 | -2.25 | 87 | inactive
TUBGCP3 (tubulin gamma complex component 3) | 1 | -0.282 | 76.3 | 0.107 | 82.9 | inactive
TUBGCP3 (tubulin gamma complex component 3) | 2 | -0.116 | 79.6 | -0.373 | 98.1 | inactive
TUBGCP3 (tubulin gamma complex component 3) | 3 | 0.677 | 95.4 | 2.01 | 62.7 | inactive
DCP1A (decapping mRNA 1A) | 1 | 1.12 | 104 | 1.13 | 86.5 | inactive
DCP1A (decapping mRNA 1A) | 2 | 1.89 | 120 | 1.26 | 96 | inactive
DCP1A (decapping mRNA 1A) | 3 | 2.84 | 138 | 1.44 | 106 | inactive
